PubChem BioAssay AID1117319 (Southern Research Institute, 2015)
About 1,500 (0.58%) of roughly 260,000 compounds were called active. Inconclusive results, whose numbers are uncertain, are shown with a selection of clear calls.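 The calls were made as follows: active = inhibition above a set limit at one or more doses, reproduced on every date tested; inconclusive = results disagree between test dates, or hit never tested in dose response; inactive = the rest.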

The chains behind the UniProt entries cited, without tags or fusion partners. Where a name states a change or a piece, a line headed by the entry shows the natural chain unless it says otherwise.
UniProt P69720: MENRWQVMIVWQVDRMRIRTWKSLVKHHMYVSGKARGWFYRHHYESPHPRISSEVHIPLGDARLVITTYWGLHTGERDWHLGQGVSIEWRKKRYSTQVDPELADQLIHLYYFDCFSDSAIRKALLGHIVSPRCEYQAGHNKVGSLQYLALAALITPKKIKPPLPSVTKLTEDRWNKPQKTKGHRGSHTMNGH
UniProt P69721: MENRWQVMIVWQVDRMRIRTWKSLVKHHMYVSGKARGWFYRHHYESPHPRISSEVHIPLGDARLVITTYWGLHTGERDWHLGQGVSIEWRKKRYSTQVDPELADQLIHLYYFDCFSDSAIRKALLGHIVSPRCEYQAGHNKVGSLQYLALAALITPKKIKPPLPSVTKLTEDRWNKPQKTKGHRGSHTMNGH
UniProt P69722: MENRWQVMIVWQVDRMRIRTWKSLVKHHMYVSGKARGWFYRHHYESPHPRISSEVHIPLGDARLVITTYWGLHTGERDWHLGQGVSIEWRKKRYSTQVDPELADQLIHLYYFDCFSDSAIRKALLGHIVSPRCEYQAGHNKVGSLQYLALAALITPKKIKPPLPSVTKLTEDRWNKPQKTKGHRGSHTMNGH
UniProt P69723: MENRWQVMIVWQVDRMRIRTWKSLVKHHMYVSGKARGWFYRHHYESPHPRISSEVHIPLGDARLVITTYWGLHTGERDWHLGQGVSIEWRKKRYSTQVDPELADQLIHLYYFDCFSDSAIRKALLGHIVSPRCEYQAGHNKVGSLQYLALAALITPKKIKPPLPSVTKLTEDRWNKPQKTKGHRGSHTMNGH
UniProt Q9HC16: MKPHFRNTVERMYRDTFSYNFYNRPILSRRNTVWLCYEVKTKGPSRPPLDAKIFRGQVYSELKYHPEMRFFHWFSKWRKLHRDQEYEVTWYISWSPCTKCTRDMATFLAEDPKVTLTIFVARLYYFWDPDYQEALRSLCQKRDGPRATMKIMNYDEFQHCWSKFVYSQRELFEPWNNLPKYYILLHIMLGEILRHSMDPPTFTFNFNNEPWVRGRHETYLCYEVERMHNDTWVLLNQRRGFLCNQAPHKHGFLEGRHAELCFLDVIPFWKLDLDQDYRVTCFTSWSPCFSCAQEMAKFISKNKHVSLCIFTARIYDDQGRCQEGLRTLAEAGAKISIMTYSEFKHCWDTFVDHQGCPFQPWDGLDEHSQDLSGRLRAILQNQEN

biological target: Virion infectivity factor (Human immunodeficiency virus type 1 group M subtype B (isolate BH10)) + Virion infectivity factor (Human immunodeficiency virus type 1 group M subtype B (isolate BRU/LAI)) + Virion infectivity factor (Human immunodeficiency virus type 1 group M subtype B (isolate PCV12)) + Virion infectivity factor (Human immunodeficiency virus type 1 group M subtype B (isolate HXB2)) + DNA dC->dU-editing enzyme APOBEC-3G (Homo sapiens) (UniProt P69720+P69721+P69722+P69723+Q9HC16); test: inhibitors of Vif binding to APOBEC3G peptide, primary screen, biochemical, TR-FRET, GST-Vif 1-94, biotin-A3G peptide, dose response retest (AID 1117319); settings: stronger effect = higher value;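 also: Vif residues 1-94 fused to GST binding biotinylated APOBEC3G peptide 110-148; 0% = full assay without inhibitor and 100% = GST in place of GST-Vif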

Structure (SMILES)	inhibition
CC(=O)C1=C(C)N(Cc2ccccc2)C(=O)N[C@H]1CCc1ccccc1	inconclusive: 37.5%
Cc1cc(-c2nn(-c3ccccc3F)cc2CN2CCC(C(N)=O)CC2)c(C)s1	inconclusive: 35.1%
O=C(NC1CCCCCC1)C1CC(=O)N(Cc2ccccc2)C1 (stereo not given)	inconclusive: 42.7%
Cc1noc(NS(=O)(=O)c2ccc(NC(=O)c3cnc4scc(C)n4c3=O)cc2)c1C	inconclusive: 53.8%
CCOC(=O)NC(=O)CSc1nc(C)cc(C)c1C#N	inconclusive: 41.2%
COc1ccc(CCN(C)C(=O)CSc2nc3ncc(Cl)cc3[nH]2)cc1OC	inconclusive: 53.5%
Cc1ccc(CNC(=O)CSc2c3c(nc4cc(Cl)ccc24)CCCC3)o1	inconclusive: 34.1%
CN(C)CCCNCCCNC(=O)c1ccccn1	inconclusive: 35.7%
O=C(CSc1nc(-c2ccccc2)cs1)NC(=O)NCc1ccco1	inconclusive: 45%
COc1cccc(CN(Cc2ccccc2F)S(=O)(=O)c2ccc(S(=O)(=O)NCc3ccccc3)cc2)c1	inconclusive: 45.2%
CCCCNc1nc2ccccc2n1CC(=O)Nc1ccc2c(c1)OCCO2	inconclusive: 43.8%
CC1(C)CC(=O)c2sc(NS(=O)(=O)c3ccc(Br)cc3)nc2C1	inconclusive: 45%
CCc1ccc(/C=C/C(=O)c2cc(Br)ccc(=O)c2O)cc1	inconclusive: 58.9%
Cc1ccc2nc(NC(=O)c3ccc(NS(=O)(=O)c4cccs4)cc3)sc2c1	inconclusive: 46.1%
Cc1ccc2[nH]c(=O)c(C3=NN(C(=O)CCC(=O)O)C(c4cccs4)C3)c(-c3ccccc3)c2c1 (stereo not given)	inactive: 2.41%
CCCCCC(=O)Nc1cccc(C2=NOC3(C2)C[C@H](C(N)=O)N(C(=O)[C@H]2CCC(=O)N2)C3)c1 (stereo not given in full)	inconclusive: 38.8%
Cc1nn(C)c(C(=O)N/N=C/c2cccc(Oc3ccccc3)c2)c1Br	inconclusive: 39.1%
O=C(CNC(=O)c1cccs1)N/N=C/c1ccco1	inactive: 10.8%
COc1ccc(/C=N/NC(=O)c2ccccc2O)cc1Cn1cc(Cl)cn1	inconclusive: 40.6%
COc1ccc(C(=O)Nc2ccc(S(=O)(=O)Nc3nccc(C)n3)cc2)cc1OC	inconclusive: 35.6%
Oc1ccc(NC(=S)Nc2ccc(F)cc2)cc1	inconclusive: 53.8%
Cc1csc(NC(=O)CSc2nnc(-c3ccco3)n2C)n1	inconclusive: 56.8%
Cc1c(Cl)cn2c(=O)cc(CN3CCN(c4ccc(F)cc4)CC3)nc2c1Cl	inconclusive: 33%
CCCOc1ccc(N2C(=O)CC(N3CCN(C(=O)c4ccco4)CC3)C2=O)cc1 (stereo not given)	inconclusive: 36.7%
Brc1ccc(-c2n(-c3ccccn3)c3ccccc3[n+]2-c2ccccn2)cc1	inconclusive: 46.8%
C=CC1=CCN(S(=O)C(C)(C)C)[C@@H]1CCO (stereo not given in full)	inactive: -5.14%
CCCn1nnc(NC(=O)c2cc3ccccc3o2)n1	inconclusive: 61.8%
COc1ccc(C(=O)NNC(=S)NC(=O)c2ccc(Br)o2)cc1OC	inconclusive: 37.8%

Structure (SMILES)	inhibition
CCOc1ccc(C(CC(=O)O)NC(=O)c2cccs2)cc1 (stereo not given)	inconclusive: 35.8%
Cc1cc(=O)[nH]c(SCc2cc(=O)n3nc(C)sc3n2)n1	inconclusive: 54.9%
COC(=O)c1ccc(C(=O)OC)c(NC(=S)N2CCN(c3cccc(Cl)c3)CC2)c1	inconclusive: 34.3%
Cc1ccc(S(=O)(=O)N2CCN(S(=O)(=O)N3CCCCCC3)CC2)cc1	inconclusive: 59.1%
OCCC1CN(Cc2c(F)cccc2Cl)CCN1C1CCCCC1 (stereo not given)	inconclusive: 42.8%
CC(=O)OC1CCC2(C)C(COc3ccc4ccc(=O)oc4c3)C(C)(O)CCC2C1(C)C (stereo not given)	inconclusive: 57.5%
NC(=O)C(c1ccccc1)C1CCCCC1 (stereo not given)	inconclusive: 54.9%
CCCN1CCN(CCCNC(=O)c2cc3c(=O)[nH]c4ccccc4c3s2)CC1	inconclusive: 55.7%
N#Cc1c(-c2ccco2)nc(NCC2CCCO2)[nH]c1=O (stereo not given)	inconclusive: 38.3%
C=CCn1c(SCc2ccccc2)nc(O)cc1=O	inconclusive: 6.09%
O=C(C[n+]1cccc(CNC(=O)c2ccc(OC(F)F)cc2)c1)c1ccccc1	inconclusive: 49.7%
C[N+](C)(C)CCN1C(=O)CSC1=O	inconclusive: 61.4%
N/C(=N\O)c1ccc(Oc2ccccc2Cl)c([N+](=O)[O-])c1	inconclusive: 33.5%
Cc1cccc(C)c1NC(=O)N1CCN(c2nc3ccccc3s2)CC1	inconclusive: 54.8%
Cc1cc(/C=C(\C#N)C(=O)NC2CCCCCC2)c(C)[nH]1	inconclusive: 57.7%
CC(C)NS(=O)(=O)c1ccc2c(c1)oc(=O)n2C	inconclusive: 37.4%
CC(=Nc1ccc(O)cc1)c1sc2ccccc2c1O	inconclusive: 36.8%
COC(=O)C1=C(C)NC(=O)/C1=C\c1cc(C)n(-c2ccccc2)c1C	inconclusive: 42.3%
CC(=O)N1CCN(CCN=CC2=C(O)CC(c3ccco3)CC2=O)CC1 (stereo not given)	inconclusive: 45.8%
O=C(CSCc1ccccc1Br)NC1CC1	inconclusive: 36.5%
CCOC(=O)[C@@H]1C(c2c(OC)cc(OC)cc2OC)=NO[C@@H]1C(=O)OCC	inconclusive: 45.2%
Nc1scc2c(C(=O)N/N=C/c3ccc(Cl)cc3)nn(-c3ccccc3)c(=O)c12	inconclusive: 59%
CC(C)(C)c1ccc(CNC(=O)c2ccc3c(c2)NC(=O)CO3)cc1	inconclusive: 41.2%
COc1ccc(CCNC(=O)c2[nH]c(C)c(C(C)=O)c2C)cc1	inconclusive: 59%
C#CCOCCOCCOCCNc1nc(N2CCN(C(=O)[C@H]([C@@H](C)CC)n3cc([C@@H](N)Cc4ccc(O)cc4)nn3)CC2)nc(N2CCN(C(=O)[C@H](Cc3ccc(O)cc3)n3cc([C@@H](N)CC(C)C)nn3)CC2)n1	inconclusive: 40.6%
O=c1oc2c(CN3CCCCC3)c(O)ccc2c2c1CCCCC2	inconclusive: 35.8%
O=C(CSc1nc2ccccc2o1)c1cc2ccccc2oc1=O	inconclusive: 46.8%

Some of these compounds in order of count of non-hydrogen atoms, largest number first:
Structure (SMILES)	inhibition
C#CCOCCOCCOCCNc1nc(N2CCN(C(=O)[C@H]([C@@H](C)CC)n3cc([C@@H](N)Cc4ccc(O)cc4)nn3)CC2)nc(N2CCN(C(=O)[C@H](Cc3ccc(O)cc3)n3cc([C@@H](N)CC(C)C)nn3)CC2)n1	inconclusive: 40.6%
N/C(=N\O)c1ccc(Oc2ccccc2Cl)c([N+](=O)[O-])c1	inconclusive: 33.5%
CC(C)NS(=O)(=O)c1ccc2c(c1)oc(=O)n2C	inconclusive: 37.4%
